For at least one entry, the source does not settle the construct or the ends of the probe. At least one verdict was read from the data and is not stated in words by the source.
Tests used:
yeast Ku (yeast) = test: EMSA; conditions: positive control for dsDNA binding; recombinant protein
RPA heterotrimer (human) = test: EMSA; conditions: positive control for ssDNA binding

| Sequence | binding result (yeast Ku (yeast)) | binding result (RPA heterotrimer (human)) |
| --- | --- | --- |
| TGGGTCAACGTGGGCAAAGATGTCCTAGCAATGTAATCGTCTATGACGTT (double strand) [PC1253/PC1253c dsDNA] | binds | – |
| TGGGTCAACGTGGGCAAAGATGTCCTAGCAATGTAATCGTCTATGACGTT [PC1253 ssDNA] | – | binds |

Source: doi:10.1101/2024.11.03.621741
